Molecules are shown by their SMILES. Some of the results follow. Further columns of the screen follow, without active or inactive calls. The list favours compounds with an active or inconclusive main result. The note in brackets gives the kind of curve behind each potency; many fits are weak.

This test is described as follows: Cell signaling CRE-BLA (Fsk stim). Particulars: CHO CRE-bla reporter (cAMP response element driving beta-lactamase), forskolin EC10, beta-lactamase ratio; measured here: 460 nm blue channel. In short, it runs like this:
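Reporter-gene assay: CHO cells with beta-lactamase behind cAMP responsive elements, co-treated with compound and EC10 NKH 477 for 3 hours at 37 degrees Celsius. Activity came from the 460/530 nm CCF4 emission ratio.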
As to `COc1ccc(CCn2c(N3CCN(Cc4ccccc4)CC3)nc3c2c(=O)[nH]c(=O)n3C)cc1`, the AC50 (in general, the concentration at which the activity in the assay is half-maximal) is 5.01 µM [rising, partial curve].

Turning to `Cc1nnc(SCC(=O)NCCN2C(=O)CSC2=O)s1`, the AC50 is 0.1 µM [falling, full curve, poor fit].

Consider `CC(=O)N1CC2(CC2)CC1c1ccccc1` (stereo not given), for which the half-maximal activity concentration (AC50) was 3.16 µM [rising, full curve].

On to `Cc1cc(NC(=O)CSc2nc3c(c(=O)n2Cc2ccccc2)SC(C)C3)no1` (stereo not given), for which the half-maximal activity concentration (AC50) is 10 µM [rising, partial curve].

Regarding `FC(F)(F)c1cccnc1N1CCN(c2ncnc3nc[nH]c23)CC1`, the AC50 was 10 µM [rising, single point].

In the case of `Nc1ccc(S(=O)(=O)c2cccc(N)c2)cc1`, the AC50 was 0.316 µM [falling, partial curve].

Regarding `CC1Cc2ccccc2N1c1ncnc2nc[nH]c12` (stereo not given), the AC50 is 12.6 µM [rising, single point].

`O=c1c(-c2ccc(Cl)cc2)nc2cncnc2n1Cc1ccccc1Cl`: the AC50 is 5.01 µM [rising, partial curve].

As to `CCN(CC)c1ccc2c(Cl)c(Br)c(=O)oc2c1`, the AC50 is 15.8 µM [rising, partial curve].

For the compound `Cc1cc(N2CCCCC2)n2ncc(-c3ccccc3)c2n1`, the concentration at half-maximal activity (AC50) was 15.8 µM [rising, partial curve].

As for `O=C(Nc1ccc2c(c1)CCC2)C1CCN(c2c3c(nc4ncnn24)CCC3)CC1`, the concentration at half-maximal activity (AC50) was 7.94 µM [falling, single point].

For the compound `COC(=O)NC1CSCC1OC(=O)CN1C(=O)c2ccccc2C1=O` (stereo not given), the AC50 was 10 µM [falling, partial curve, poor fit].

With `COC(=O)c1ccc(COc2nc(C)cc(C)c2C#N)o1`, the AC50 is 1.58 µM [rising, partial curve].

`Oc1ccccc1O`: the AC50 was 3.16 µM [falling, full curve].

Take `COc1ccccc1-c1nnc(Nc2nc3c(OC)cccc3s2)o1`: the AC50 is 0.398 µM [rising, full curve].

For the compound `CCn1c(=N)c(C(=O)NCc2cccnc2)cc2c(=O)n3cccc(C)c3nc21`, the AC50 was 15.8 µM [rising, single point].

As for `COc1cc2c(cc1OC)-c1cc(NCc3ccccn3)nc(=O)n1CC2`, the AC50 was 6.31 µM [rising, partial curve].

Take `COc1ccc2[nH]cc(CCNc3nc(-c4ccoc4)nc4ccccc34)c2c1`: the AC50 was 3.98 µM [rising, partial curve].

`CC1=Nc2ccccc2N=C(NC(=O)CSc2nnnn2-c2ccccc2)C1c1ccccc1` (stereo not given): the AC50 was 12.6 µM [rising, partial curve, poor fit].

Take `COc1ccc(CN2CC(C(=O)NCCCN3CCOCC3)CC2=O)cc1` (stereo not given): the AC50 was 25.1 µM [rising, single point].

In the case of `O=C(O)C1C2C=CC3(CN(C/C=C/c4ccccc4)C(=O)C13)O2` (stereo not given), the AC50 is 0.00316 µM [falling, full curve, poor fit].

Take `FC(F)(F)c1ccccc1-n1ccnc1`: the half-maximal activity concentration (AC50) was 31.6 µM [falling, single point].

As to `CCC(=O)Nc1ccccc1N1CCN(S(C)(=O)=O)CC1`, the half-maximal activity concentration (AC50) was 0.631 µM [rising, single point].

In the case of `CCOC(=O)C1=C(C)Nc2ncnn2C1c1cc(Br)ccc1F` (stereo not given), the half-maximal activity concentration (AC50) was 15.8 µM [rising, single point].

With `Fc1ccc(-c2cc3nc(-c4ccccc4)cc(N4CCOCC4)n3n2)cc1`, the AC50 was 10 µM [rising, partial curve].

Regarding `Nc1c(C(=O)NCc2ccco2)nnn1Cc1ccccc1`, the AC50 was 10 µM [falling, partial curve, poor fit].

Take `Nc1cc(OC(=O)c2ccccc2Br)nn1S(=O)(=O)c1ccccc1`: the AC50 was 10 µM [falling, partial curve].

Consider `COc1ccccc1OCC(=O)N(Cc1nc(-c2ccc(Cl)cc2)no1)C(C)C`, for which the half-maximal activity concentration (AC50) is 25.1 µM [falling, single point].

On to `COc1ccc(CCNC(=O)C2CCCN(c3nn4c(=O)cc(C)nc4s3)C2)cc1OC` (stereo not given), for which the AC50 was 0.00794 µM [falling, full curve, poor fit].

With `CN(c1cccc(NC(=O)Cc2ccccc2)c1)S(C)(=O)=O`, the AC50 was 3.16 µM [falling, partial curve].

Regarding `Nc1[nH]nc2nc(N3CCCC3)nc(-c3ccccc3)c12`, the half-maximal activity concentration (AC50) is 12.6 µM [rising, partial curve].

For `COc1ccccc1CCn1c(=O)c(-c2cccs2)nc2cncnc21`, the AC50 is 10 µM [rising, partial curve].

`CC1=C(C(=O)OCc2ccccc2)C(c2ccco2)n2ncnc2N1` (stereo not given): the half-maximal activity concentration (AC50) was 2.51 µM [rising, full curve].

For `CCCCN(CC)C(=O)CSc1cc(=O)n(C)c2ccccc12`, the half-maximal activity concentration (AC50) was 12.6 µM [rising, single point].

In the case of `FC(F)(F)c1ccccc1-c1ccc2ncnc(NCc3cccnc3)c2c1`, the half-maximal activity concentration (AC50) was 7.94 µM [rising, partial curve].

Turning to `CCN(C1CCCCC1)S(=O)(=O)c1cn(C)c(=O)n(C)c1=O`, the half-maximal activity concentration (AC50) was 12.6 µM [rising, partial curve].

For the compound `Brc1ccc(-c2nnc3n2-c2ccccc2CC3)cc1`, the half-maximal activity concentration (AC50) was 12.6 µM [rising, single point].

For `CN(C)/C=C/C(=O)c1nnn(C2CCCCC2)c1NC1CCCCC1`, the AC50 is 25.1 µM [falling, single point].

In the case of `C=CCN=C(NC#N)SCC(=O)c1cccc(OC)c1`, the concentration at half-maximal activity (AC50) was 10 µM [falling, partial curve].

As for `COc1ccc(CCNC(=O)C2CC(=O)N(c3ccc(F)cc3)C2)cc1OC` (stereo not given), the concentration at half-maximal activity (AC50) is 0.00316 µM [falling, full curve, poor fit].

Regarding `Cc1nn(-c2ccccn2)c2c1C(c1ccsc1)C1=C(CCCC1=O)N2` (stereo not given), the half-maximal activity concentration (AC50) was 3.16 µM [rising, full curve].

For the compound `COc1ccc(-n2nnnc2SCC(=O)Nc2nnc(C)s2)cc1OC`, the concentration at half-maximal activity (AC50) was 12.6 µM [rising, partial curve].

Turning to `COC(=O)c1cc(=O)nc2sccn12`, the AC50 is 25.1 µM [falling, single point].

As for `COc1ccc(-c2csc(NC(C)=O)n2)cc1OC`, the AC50 was 20 µM [rising, single point].

`COc1ccc(Cl)cc1C(=O)n1nc(C)cc1C`: the concentration at half-maximal activity (AC50) is 1.26 µM [falling, partial curve, poor fit].

For the origin of these results see PubChem BioAssay AID662 (National Center for Advancing Translational Sciences (NCATS), 2007).
